PubChem BioAssay AID493014 (National Center for Advancing Translational Sciences (NCATS), 2011)
Screen size: about 340,000 compounds; about 170 (0.05%) were called active. The shares of active, inactive and inconclusive entries below differ from those in the screen. The call rests on the fitted dose curve; in most records, active means well fitted inhibition curve with a large enough effect in the signal ratio, with a control signal flat (not every such curve was filed as active); inconclusive means small, poorly fitted or top-dose-only effect, or effect the other way, or a change in a side signal; inactive means flat fitted curve, though single readings scatter; the % refers to the signal ratio. Potencies of inconclusive entries are doubtful fits and often do not repeat.
Potency means the concentration at half of the fitted maximal effect.

Experiment: qHTS Assay to Find Inhibitors of Chronic Active B-Cell Receptor Signaling;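 on activity change, negative = inhibition: plate controls were basal doxycycline-induced cells for no effect and cells given 10 µM MG132 for full effect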
Details: ABC-DLBCL IkBa-CBG/CBR reporter, luminescence ratio (green luciferase fused to IkBa over red control in TMD8 lymphoma cells), 4 h; activity change, negative = inhibition: at 46.1 µM (top of the series)
Summary of the method: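 Cell line TMD8 (human ABC DLBCL), stably expressing tet-inducible CBG68-IkBa fusion and CBR; IMDM/0.5% FBS; cpd up to 46 uM; dox induction, 4 h, 37C/5% CO2; dual luminescence; green/red ratio; MG132 control.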
In the case of `COc1cc(CN2CCN(C(=O)c3cccc4ccccc34)CC2)cc(OC)c1OC`, the activity change, negative = inhibition is reported as inconclusive: -0.0907%.
In the case of `C=CCC1C=C(C)CC(CC=C)N1` (stereo not given), the activity change, negative = inhibition is reported as inconclusive: 6.45%.
In the case of `COc1ccc([N+](=O)[O-])c(OC)c1C(=O)NC(=O)Nc1nc(C)cc(C)n1`, the activity change, negative = inhibition is reported as inconclusive: -2.06%.
In the case of `CCOc1cccc2sc(N(CCCN(C)C)C(=O)c3ccc(S(=O)(=O)N(C)c4ccccc4)cc3)nc12`, the activity change, negative = inhibition is reported as inconclusive: -0.617%.
In the case of `CCn1cc(CN2CCc3c([nH]c4ccccc34)C2c2cccc(OC)c2)c(C)n1` (stereo not given), the Potency is reported as inconclusive: 17.8 µM [falling, partial curve, poor fit].
With `COc1ccc(C2C(C)C3(O)CC(C#N)(C(=O)N3)C2(C#N)C#N)cc1` (stereo not given) the activity change, negative = inhibition was inconclusive: 6.13%.
In the case of `CCc1cccc(OCC(=O)Nc2ccc(C(=O)O)cc2NC(=O)COc2cccc(CC)c2)c1`, the activity change, negative = inhibition is reported as inconclusive: -12.4%.
For `CCc1nnc(NC(=O)CSc2nnc(-c3ccccc3O)o2)s1`, the Potency was inconclusive: 35.5 µM [rising, single point].
With `N#Cc1nc(COc2ccc(Br)cc2)oc1N1CCCC1` the activity change, negative = inhibition was inconclusive: 17.5%.
In the case of `COC(=O)c1ccccc1NC(=O)CSc1ccc(C)cc1`, the Potency is reported as inconclusive: 2.31 µM [falling, full curve].
With `CCOC(=O)C/C(C)=N/NC(=O)c1cccs1` the Potency was inconclusive: 25.1 µM [falling, single point].
In the case of `CC(=O)c1ccc(NC(=O)CSc2nnc3ccc(-c4ccc(Br)cc4)nn23)cc1`, the Potency is reported as inconclusive: 35.5 µM [falling, single point].
In the case of `CN(C)CCNC(=O)c1ccc2c(c1)NC(=O)C(CS(=O)(=O)Cc1cccc(Br)c1)N2` (stereo not given), the activity change, negative = inhibition is reported as “inactive”.
In the case of `COc1ccccc1NC(=O)CSc1nnc(NC(=O)Nc2ccc(C)cc2)s1`, the Potency is reported as inconclusive: 17.8 µM [rising, partial curve, poor fit].
For `Cc1ccc(NC(=O)C(=Cc2ccc(C(=O)O)cc2)C(=O)Nc2ccc(C)cc2C)c(C)c1`, the activity change, negative = inhibition was inconclusive: -13%.
For `Cc1ccc(NC(=O)CNCc2cccs2)cc1Br`, the activity change, negative = inhibition was inconclusive: -0.806%.
In the case of `COc1cc2c(cc1OC)CN(C(=O)CCOc1ccccc1)CC2`, the activity change, negative = inhibition is reported as inconclusive: 0.0931%.
With `Cc1nc2ccc(NC(=O)c3sccc3C)cc2s1` the Potency was inconclusive: 35.5 µM [rising, single point].
In the case of `CCOC(=O)N1CCN(c2cc(NCCC(=O)O)c3c4c(onc24)-c2ccccc2C3=O)CC1`, the activity change, negative = inhibition is reported as inconclusive: 6.36%.
For `O=C(c1cccc(F)c1)n1nnc2ccccc21`, the activity change, negative = inhibition was inconclusive: 1.29%.
With `CC(C)=C1C2CCC1C(C(=O)NCCc1ccccc1)C2C(=O)O` (stereo not given) the activity change, negative = inhibition was inconclusive: 5.49%.
For `COc1cc(OC)c(C2CC(=O)N3CN(c4ccc(C)cc4)CSC3=C2C#N)cc1OC` (stereo not given), the activity change, negative = inhibition was “inactive”.
With `O=C(CCN1C(=O)/C(=C/C=C/c2ccccc2)SC1=S)Nc1ccccn1` the activity change, negative = inhibition was inconclusive: 345%.
For `Cc1c(NC(=O)c2c(N)n(-c3ccccc3)c3nc4ccccc4nc23)c(=O)n(-c2ccccc2)n1C`, the activity change, negative = inhibition was inconclusive: -4.37%.
In the case of `COc1ccc(S(=O)(=O)NCCc2csc3nc(-c4cccc(C)c4)nn23)cc1F`, the activity change, negative = inhibition is reported as “inactive”.
In the case of `Cc1ccc(CC(=O)Nc2ccc3c(c2)N(C)C(=O)c2ccccc2S3)cc1`, the activity change, negative = inhibition is reported as inconclusive: 0.335%.
With `Cc1ccc(OCCOc2ccc(Br)cc2)c([N+](=O)[O-])n1` the activity change, negative = inhibition was “inactive”.
With `CCC(=O)Nc1ccc(NC(=O)c2ccco2)c(OC)c1` the Potency was inconclusive: 13 µM [rising, partial curve, poor fit].
In the case of `CCCCCc1nnc(NC(=O)OCCC)s1`, the activity change, negative = inhibition is reported as inconclusive: 16.2%.
With `O=C(c1ccc(Cl)cc1)C(CN1CCCCC1)c1ccccc1` (stereo not given) the activity change, negative = inhibition was inconclusive: -18.6%.
In the case of `COC(=O)c1ccc(OCC(=O)c2ccc(C)c(C)c2)cc1`, the activity change, negative = inhibition is reported as inconclusive: -12.8%.
With `O=C(Nc1nccs1)c1ccc(-c2ccc(Cl)cc2Cl)o1` the activity change, negative = inhibition was inconclusive: 6.67%.
With `Cc1ccc(-c2nc(=S)c3c(n2Cc2ccco2)CCCC3)cc1` the activity change, negative = inhibition was “inactive”.
With `Cc1ccsc1C(=O)OCC(=O)Nc1sccc1C(N)=O` the Potency was inconclusive: 8.91 µM [falling, partial curve].
For `Cc1cc(NC(=O)c2cc(-c3ccncc3)nc3ccccc23)ccc1Br`, the activity change, negative = inhibition was inconclusive: -8.47%.
With `Cc1cc(O)ccc1N/C=C1\CCCC1=O` the Potency was inconclusive: 25.9 µM [falling, single point].
In the case of `CC(C)(C)c1ccc(C(=O)NCCC(=O)NCc2ccco2)cc1`, the activity change, negative = inhibition is reported as inconclusive: 9.75%.
With `Cc1ccc(/C=N/NC(=O)C2CC(=O)N(c3ccccc3)C2)s1` (stereo not given) the activity change, negative = inhibition was “inactive”.
For `CCc1ccccc1OCC(=O)Nc1ccc(F)c(S(=O)(=O)N2CCOCC2)c1`, the Potency was inconclusive: 10.3 µM [falling, partial curve].
With `C[C@@H]1CN([C@@H](C)CO)C(=O)c2cc(NS(=O)(=O)c3cccs3)ccc2O[C@H]1CN(C)Cc1ccc(C(F)(F)F)cc1` the activity change, negative = inhibition was inconclusive: -1.8%.
In the case of `CCOCCCNC(=O)c1cc(Sc2cccc(Cl)c2)nc2ccccc12`, the activity change, negative = inhibition is reported as “inactive”.
With `O=C(Cc1csc(N2CCOCC2)n1)N/N=C/c1ccc(F)cc1` the activity change, negative = inhibition was inconclusive: 13.1%.
In the case of `COc1ccc(Cc2nnc(NC(=O)Nc3ccccc3F)s2)cc1OC`, the activity change, negative = inhibition is reported as inconclusive: 14.4%.
With `Cc1cccc(N2CCN(C(=O)c3ccc(CS(=O)(=O)c4ccccc4C)o3)CC2C)c1` (stereo not given) the Potency was inconclusive: 31.6 µM [cytotoxic, partial curve].
For `Cn1cnc(C(=O)NCc2ccc(CNC(=O)OC(C)(C)C)cc2)c1C(=O)NCc1ccc(CNC(=O)OC(C)(C)C)cc1`, the activity change, negative = inhibition was inconclusive: -0.539%.
With `C=CCn1cccc(C(=O)Nc2ccc(SC)cc2)c1=O` the Potency was inconclusive: 35.5 µM [falling, single point].
For `COC(=O)c1ccc(-c2ccc(Cl)cc2)nc1C`, the activity change, negative = inhibition was inconclusive: -0.46%.
With `Cc1ccc(Nc2sc(C(=O)c3ccccc3)c(N)c2C(=O)Nc2ccc(Cl)cc2)cc1` the activity change, negative = inhibition was inconclusive: 3.82%.
For `CNC(=O)C1CC(=O)N(CCc2ccc(OC)c(OC)c2)C(=Nc2ccc(F)cc2)S1` (stereo not given), the activity change, negative = inhibition was “inactive”.
For `O=C(O)/C=C/C(=O)Nc1ccccc1-c1ccccc1NC(=O)/C=C/C(=O)O`, the activity change, negative = inhibition was “inactive”.
